Data published in the supplement of paper PMC11732987, “Enantioselective OTUD7B fragment discovery through chemoproteomics screening and high-throughput optimisation” (Communications Chemistry, 2025).
The list shows a part of the results. The data scatter; read single values as rough.

The chains behind the UniProt entries cited, without tags or fusion partners. Where a name states a change or a piece, a line headed by the entry shows the natural chain unless it says otherwise. Residues count along the entry.
UniProt Q9NQX3, 411-434: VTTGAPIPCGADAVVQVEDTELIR
UniProt Q14161: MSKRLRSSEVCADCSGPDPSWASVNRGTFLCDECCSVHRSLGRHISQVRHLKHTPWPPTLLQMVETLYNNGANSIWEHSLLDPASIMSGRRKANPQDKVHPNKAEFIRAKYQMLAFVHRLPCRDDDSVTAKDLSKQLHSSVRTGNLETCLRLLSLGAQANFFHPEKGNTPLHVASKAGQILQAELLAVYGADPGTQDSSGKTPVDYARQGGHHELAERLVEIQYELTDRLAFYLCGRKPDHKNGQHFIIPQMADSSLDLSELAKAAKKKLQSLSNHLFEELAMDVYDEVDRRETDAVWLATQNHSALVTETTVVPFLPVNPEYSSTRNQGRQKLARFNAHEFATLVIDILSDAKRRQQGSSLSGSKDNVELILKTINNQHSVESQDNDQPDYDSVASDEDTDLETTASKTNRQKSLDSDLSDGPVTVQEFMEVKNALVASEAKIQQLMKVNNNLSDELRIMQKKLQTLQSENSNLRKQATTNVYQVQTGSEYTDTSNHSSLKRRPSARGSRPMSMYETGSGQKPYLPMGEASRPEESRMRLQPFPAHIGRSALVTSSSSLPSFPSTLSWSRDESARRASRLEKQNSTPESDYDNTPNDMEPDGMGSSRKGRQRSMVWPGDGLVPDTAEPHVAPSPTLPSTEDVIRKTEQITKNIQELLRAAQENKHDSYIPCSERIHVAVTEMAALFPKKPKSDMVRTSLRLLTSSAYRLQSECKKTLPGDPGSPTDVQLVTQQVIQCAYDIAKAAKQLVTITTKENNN
UniProt Q86VQ1: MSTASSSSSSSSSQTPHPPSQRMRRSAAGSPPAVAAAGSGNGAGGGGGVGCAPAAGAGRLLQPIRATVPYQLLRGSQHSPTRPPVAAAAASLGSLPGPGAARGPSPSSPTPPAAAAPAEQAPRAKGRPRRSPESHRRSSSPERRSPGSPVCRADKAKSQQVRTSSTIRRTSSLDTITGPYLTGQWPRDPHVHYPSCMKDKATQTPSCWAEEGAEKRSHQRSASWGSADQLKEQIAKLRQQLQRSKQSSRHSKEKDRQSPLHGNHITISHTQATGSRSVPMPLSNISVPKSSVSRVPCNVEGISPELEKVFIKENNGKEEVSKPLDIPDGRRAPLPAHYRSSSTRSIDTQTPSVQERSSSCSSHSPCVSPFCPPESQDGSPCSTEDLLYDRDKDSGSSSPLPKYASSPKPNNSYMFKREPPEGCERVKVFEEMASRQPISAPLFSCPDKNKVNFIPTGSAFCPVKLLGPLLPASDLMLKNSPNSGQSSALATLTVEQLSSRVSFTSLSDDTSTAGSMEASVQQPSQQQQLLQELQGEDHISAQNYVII
UniProt Q9NVN8: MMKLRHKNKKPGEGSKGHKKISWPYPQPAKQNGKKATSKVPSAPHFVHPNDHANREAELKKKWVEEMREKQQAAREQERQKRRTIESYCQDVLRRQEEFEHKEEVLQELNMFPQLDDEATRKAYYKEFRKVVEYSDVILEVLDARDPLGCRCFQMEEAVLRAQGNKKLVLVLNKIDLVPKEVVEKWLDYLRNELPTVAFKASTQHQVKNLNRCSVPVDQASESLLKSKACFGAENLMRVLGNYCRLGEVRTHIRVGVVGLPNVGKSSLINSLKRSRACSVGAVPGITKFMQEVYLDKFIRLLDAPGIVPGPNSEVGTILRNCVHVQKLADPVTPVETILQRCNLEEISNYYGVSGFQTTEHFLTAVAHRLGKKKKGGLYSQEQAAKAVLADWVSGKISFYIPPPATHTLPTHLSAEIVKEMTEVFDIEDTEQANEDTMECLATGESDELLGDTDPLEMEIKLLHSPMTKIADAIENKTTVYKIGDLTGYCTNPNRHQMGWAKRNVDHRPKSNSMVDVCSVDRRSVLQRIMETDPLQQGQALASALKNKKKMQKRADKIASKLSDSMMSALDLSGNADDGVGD
UniProt Q14789: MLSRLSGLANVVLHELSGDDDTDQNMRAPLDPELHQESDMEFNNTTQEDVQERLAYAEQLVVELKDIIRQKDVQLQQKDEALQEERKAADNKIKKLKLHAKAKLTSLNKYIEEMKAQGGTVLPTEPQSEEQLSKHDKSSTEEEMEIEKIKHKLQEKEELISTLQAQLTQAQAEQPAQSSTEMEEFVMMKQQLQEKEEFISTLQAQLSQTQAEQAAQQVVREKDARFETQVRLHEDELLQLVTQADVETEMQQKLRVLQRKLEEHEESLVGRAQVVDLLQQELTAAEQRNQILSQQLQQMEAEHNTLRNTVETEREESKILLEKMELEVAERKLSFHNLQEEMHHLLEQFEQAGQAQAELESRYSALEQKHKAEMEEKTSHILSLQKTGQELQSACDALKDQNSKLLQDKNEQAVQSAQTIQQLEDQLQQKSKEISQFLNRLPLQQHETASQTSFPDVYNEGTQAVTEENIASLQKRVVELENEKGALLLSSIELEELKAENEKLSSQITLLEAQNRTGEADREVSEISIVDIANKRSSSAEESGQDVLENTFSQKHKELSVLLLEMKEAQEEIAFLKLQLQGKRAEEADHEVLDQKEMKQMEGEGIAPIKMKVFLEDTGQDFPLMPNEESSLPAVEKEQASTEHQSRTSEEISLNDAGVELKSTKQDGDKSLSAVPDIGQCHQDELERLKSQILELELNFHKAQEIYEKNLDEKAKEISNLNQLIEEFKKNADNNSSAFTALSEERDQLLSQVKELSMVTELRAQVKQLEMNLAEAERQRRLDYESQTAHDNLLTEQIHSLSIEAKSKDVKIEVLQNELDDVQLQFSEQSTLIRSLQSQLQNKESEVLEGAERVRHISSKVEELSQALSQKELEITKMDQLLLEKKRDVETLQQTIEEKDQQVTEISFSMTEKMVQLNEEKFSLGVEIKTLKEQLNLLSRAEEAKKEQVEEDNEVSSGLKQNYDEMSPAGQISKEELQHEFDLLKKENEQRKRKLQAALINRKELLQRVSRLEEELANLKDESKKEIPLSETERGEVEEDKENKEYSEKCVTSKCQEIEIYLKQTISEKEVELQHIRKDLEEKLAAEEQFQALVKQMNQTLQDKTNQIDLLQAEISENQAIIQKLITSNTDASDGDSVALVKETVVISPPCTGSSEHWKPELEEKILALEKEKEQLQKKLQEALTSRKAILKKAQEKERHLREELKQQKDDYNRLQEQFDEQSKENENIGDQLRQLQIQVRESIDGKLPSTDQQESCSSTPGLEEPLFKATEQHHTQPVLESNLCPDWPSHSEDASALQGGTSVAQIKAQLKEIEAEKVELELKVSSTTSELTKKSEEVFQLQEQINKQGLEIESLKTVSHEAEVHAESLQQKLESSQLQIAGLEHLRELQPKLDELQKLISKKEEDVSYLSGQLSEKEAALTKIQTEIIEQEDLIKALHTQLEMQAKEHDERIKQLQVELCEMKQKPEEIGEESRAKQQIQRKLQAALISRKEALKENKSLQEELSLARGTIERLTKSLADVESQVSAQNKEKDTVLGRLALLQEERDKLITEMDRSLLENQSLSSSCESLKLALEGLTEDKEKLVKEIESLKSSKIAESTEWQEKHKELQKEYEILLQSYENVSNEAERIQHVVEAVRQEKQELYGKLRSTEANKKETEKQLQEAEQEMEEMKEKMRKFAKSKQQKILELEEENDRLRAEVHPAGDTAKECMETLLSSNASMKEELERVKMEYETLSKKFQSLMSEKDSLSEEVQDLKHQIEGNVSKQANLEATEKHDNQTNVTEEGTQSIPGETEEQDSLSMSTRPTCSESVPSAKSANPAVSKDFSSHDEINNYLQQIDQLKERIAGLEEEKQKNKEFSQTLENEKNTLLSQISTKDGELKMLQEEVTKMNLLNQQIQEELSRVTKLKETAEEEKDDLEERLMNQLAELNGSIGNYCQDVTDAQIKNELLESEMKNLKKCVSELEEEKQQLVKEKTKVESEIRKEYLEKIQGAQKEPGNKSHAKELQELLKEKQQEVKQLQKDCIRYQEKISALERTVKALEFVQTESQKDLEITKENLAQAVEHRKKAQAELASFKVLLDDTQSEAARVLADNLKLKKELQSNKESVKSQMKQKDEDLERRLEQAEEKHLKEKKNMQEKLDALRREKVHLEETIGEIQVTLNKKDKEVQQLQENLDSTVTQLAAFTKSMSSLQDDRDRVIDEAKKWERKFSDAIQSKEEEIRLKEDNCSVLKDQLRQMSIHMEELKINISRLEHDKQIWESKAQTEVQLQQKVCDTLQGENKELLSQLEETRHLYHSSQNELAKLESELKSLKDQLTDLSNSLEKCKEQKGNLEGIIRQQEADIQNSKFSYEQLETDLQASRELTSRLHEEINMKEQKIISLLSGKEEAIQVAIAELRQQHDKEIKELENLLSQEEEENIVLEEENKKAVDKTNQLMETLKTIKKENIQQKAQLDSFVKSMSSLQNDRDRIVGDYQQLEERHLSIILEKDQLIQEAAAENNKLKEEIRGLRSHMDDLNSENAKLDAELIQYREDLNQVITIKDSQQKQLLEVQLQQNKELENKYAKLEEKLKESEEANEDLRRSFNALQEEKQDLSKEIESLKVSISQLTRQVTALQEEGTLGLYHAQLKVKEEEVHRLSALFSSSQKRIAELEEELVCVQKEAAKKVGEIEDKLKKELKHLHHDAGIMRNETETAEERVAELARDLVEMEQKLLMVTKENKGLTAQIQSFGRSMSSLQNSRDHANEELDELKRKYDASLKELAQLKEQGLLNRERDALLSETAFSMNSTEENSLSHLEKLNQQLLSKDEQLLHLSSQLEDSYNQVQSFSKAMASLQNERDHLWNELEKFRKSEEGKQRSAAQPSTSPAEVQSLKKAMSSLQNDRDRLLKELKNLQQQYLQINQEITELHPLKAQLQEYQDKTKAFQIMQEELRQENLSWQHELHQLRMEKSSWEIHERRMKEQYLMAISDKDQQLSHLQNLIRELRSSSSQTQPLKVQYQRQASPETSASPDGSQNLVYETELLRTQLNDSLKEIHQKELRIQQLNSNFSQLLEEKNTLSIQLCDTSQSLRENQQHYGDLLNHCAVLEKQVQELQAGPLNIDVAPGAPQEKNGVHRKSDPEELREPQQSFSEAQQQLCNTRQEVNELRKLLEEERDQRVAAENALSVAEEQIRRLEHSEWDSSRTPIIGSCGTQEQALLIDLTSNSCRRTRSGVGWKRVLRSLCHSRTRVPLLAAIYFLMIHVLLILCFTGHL
UniProt Q08379, 189-208: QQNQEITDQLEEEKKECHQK
UniProt Q9NU53: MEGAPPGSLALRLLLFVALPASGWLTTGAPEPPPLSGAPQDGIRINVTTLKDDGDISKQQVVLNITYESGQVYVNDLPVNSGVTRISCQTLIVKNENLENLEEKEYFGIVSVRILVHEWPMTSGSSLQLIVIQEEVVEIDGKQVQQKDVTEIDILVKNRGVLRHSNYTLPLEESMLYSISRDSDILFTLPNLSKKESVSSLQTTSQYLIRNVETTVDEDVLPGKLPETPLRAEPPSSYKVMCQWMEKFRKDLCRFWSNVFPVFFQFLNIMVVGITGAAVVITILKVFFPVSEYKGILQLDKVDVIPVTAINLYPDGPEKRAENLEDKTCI
UniProt Q9P2T1: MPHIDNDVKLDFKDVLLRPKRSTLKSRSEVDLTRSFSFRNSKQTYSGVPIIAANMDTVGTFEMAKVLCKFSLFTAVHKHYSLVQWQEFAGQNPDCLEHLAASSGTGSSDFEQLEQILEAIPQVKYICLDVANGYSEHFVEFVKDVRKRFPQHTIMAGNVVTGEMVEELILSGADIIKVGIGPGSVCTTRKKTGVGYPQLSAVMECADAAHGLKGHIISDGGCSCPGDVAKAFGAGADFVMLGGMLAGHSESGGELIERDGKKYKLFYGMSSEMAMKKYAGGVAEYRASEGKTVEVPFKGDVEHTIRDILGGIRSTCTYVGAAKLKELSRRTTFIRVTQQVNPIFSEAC
UniProt P35626: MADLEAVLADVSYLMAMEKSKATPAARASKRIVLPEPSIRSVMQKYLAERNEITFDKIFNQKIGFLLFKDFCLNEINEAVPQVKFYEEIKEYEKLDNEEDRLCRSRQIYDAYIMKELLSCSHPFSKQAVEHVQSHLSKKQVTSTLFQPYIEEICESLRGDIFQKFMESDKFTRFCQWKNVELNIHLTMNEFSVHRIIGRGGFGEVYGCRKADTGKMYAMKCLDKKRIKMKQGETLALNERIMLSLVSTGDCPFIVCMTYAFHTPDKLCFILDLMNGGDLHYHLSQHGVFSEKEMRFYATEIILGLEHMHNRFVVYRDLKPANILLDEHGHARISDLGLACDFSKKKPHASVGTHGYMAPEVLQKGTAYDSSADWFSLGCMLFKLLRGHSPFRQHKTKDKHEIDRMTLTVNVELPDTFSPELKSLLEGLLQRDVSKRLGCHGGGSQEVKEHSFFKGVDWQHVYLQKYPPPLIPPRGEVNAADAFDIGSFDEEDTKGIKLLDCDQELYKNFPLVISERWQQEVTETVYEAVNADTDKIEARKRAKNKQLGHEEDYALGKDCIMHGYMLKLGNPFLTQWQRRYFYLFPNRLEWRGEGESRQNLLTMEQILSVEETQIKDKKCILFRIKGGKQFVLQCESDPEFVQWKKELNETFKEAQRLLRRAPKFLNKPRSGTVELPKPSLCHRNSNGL
UniProt Q92990, 533-556: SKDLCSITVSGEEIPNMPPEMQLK

Columns and labels:
[1] = compound: ClCC(=O)N[C@@H]1CCCc2ccccc12; experiment: log2 mean competition ratio of IA-DTB cysteine labelling (DMSO/compound) (log2 ratio); higher = stronger cysteine engagement by compound; conditions: treatment time: 4 h, cell line lysate: HEK293T
Experimental: (§1)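 IA-DTB competitive cysteine chemoproteomics in HEK293T RIPA lysate. Lysates were treated with compound 29 or 30 at 50 or 200 µM for 4 h, then IA-DTB (500 µM, 1 h), trypsin-digested, NeutrAvidin-enriched and analysed by diaPASEF. Competition ratio = intensity DMSO / intensity compound (n=4 treated, n=64 DMSO); binding: mean log2 CR ≥ 1 and p ≤ 0.05 plus QC filters. Target is the cysteine site.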

[2] = compound: ClCC(=O)N[C@H]1CCCc2ccccc12; experiment: as above; conditions: treatment time: 4 h, cell line lysate: HEK293T
Experimental: as §1

| Target | log2 mean competition ratio ([1]; 50 µM) | log2 mean competition ratio ([1]; 200 µM) | log2 mean competition ratio ([2]; 50 µM) | log2 mean competition ratio ([2]; 200 µM) |
| --- | --- | --- | --- | --- |
| GPHN C419 (UniProt Q9NQX3) | -0.155 | -0.0396 | 0.237 | -0.131 |
| GPATCH2 C188 (UniProt Q9NW75) | -0.0478 | 0.171 | 0.0201 | 0.23 |
| GIT2 C122 (UniProt Q14161) | -0.0887 | 0.0613 | -0.312 | 0.135 |
| GGCX C343 (UniProt P38435) | 0.217 | 0.257 | 0.351 | 0.197 |
| GNL3 C158 (UniProt Q9BVP2) | -0.022 | -0.268 | 0.564 | -0.0546 |
| GRK2 C120 (UniProt P25098) | 0.165 | 0.114 | -0.275 | -0.0906 |
| GRIPAP1 C744 (UniProt Q4V328) | 0.162 | -0.0969 | 0.443 | -0.123 |
| GLCCI1 C151 (UniProt Q86VQ1) | 0.0166 | 0.193 | -0.0761 | 0.246 |
| GDAP2 C148 (UniProt Q9NXN4) | -0.0436 | 0.0349 | 0.181 | 0.0235 |
| GINS3 C188 (UniProt Q9BRX5) | 0.0736 | -0.255 | 0.0406 | -0.0965 |
| GRK6 C71 (UniProt P43250) | 0.0637 | 0.0601 | -0.515 | 0.0285 |
| GNL3L C244 (UniProt Q9NVN8) | 0.104 | 0.257 | -0.129 | 0.126 |
| GOLGB1 C1055 (UniProt Q14789) | -0.13 | 0.247 | -0.12 | 0.461 |
| GOLGA2 C205 (UniProt Q08379) | -0.245 | 0.0723 | -0.028 | -0.0759 |
| GPATCH8 C1161 (UniProt Q9UKJ3) | -0.125 | 0.0176 | -0.358 | 0.23 |
| GNAI1 C66 (UniProt P63096) | -0.35 | 0.00975 | -0.543 | -0.0267 |
| GDI2 C414 | -0.518 | -0.165 | -0.467 | -0.0202 |
| GMDS C92 (UniProt O60547) | -0.111 | 0.662 | -0.517 | 0.351 |
| GINM1 C242 (UniProt Q9NU53) | -0.0812 | -0.171 | -0.181 | -0.0161 |
| GOLGB1 C1462 (UniProt Q14789) | -0.219 | 0.21 | -0.217 | 0.155 |

| Target | log2 mean competition ratio ([1]; 50 µM) | log2 mean competition ratio ([1]; 200 µM) | log2 mean competition ratio ([2]; 50 µM) | log2 mean competition ratio ([2]; 200 µM) |
| --- | --- | --- | --- | --- |
| GRB14 C360 | -0.058 | 0.0774 | -0.101 | 0.111 |
| GCN1 C2558 (UniProt Q92616) | 0.00373 | 0.02 | -0.177 | -0.0281 |
| GPT2 C281 (UniProt Q8TD30) | -0.588 | 0.272 | 0.384 | 0.332 |
| GINS1 C75 (UniProt Q14691) | 0.509 | 0.273 | 0.194 | 0.194 |
| GLB1 C393 (UniProt P16278) | -0.185 | -0.0843 | -0.298 | -0.33 |
| GMPR2 C348 (UniProt Q9P2T1) | 0.1 | -0.341 | 0.476 | -0.184 |
| GRK3 C103 (UniProt P35626) | -0.191 | 0.343 | -0.434 | 0.269 |
| GPC1 C246 (UniProt P35052) | -0.295 | 0.21 | -0.262 | 0.356 |
| GON4L C1723 (UniProt Q3T8J9) | -0.528 | – | -0.103 | 0.384 |
| GIGYF1 C583 (UniProt O75420) | 0.372 | – | 0.641 | 0.634 |
| GMPR2 C186 (UniProt Q9P2T1) | 0.113 | -0.159 | -0.314 | -0.151 |
| GPD2 C385 (UniProt P43304) | -0.136 | 0.007 | -0.531 | -0.0552 |
| GK;GK3P C67;(C67) | 0.271 | -0.515 | -0.0977 | -0.531 |
| GPATCH1 C534 (UniProt Q9BRR8) | – | -0.489 | 0.0139 | 0.3 |
| GCFC2 C595 (UniProt P16383) | -0.184 | 0.0757 | -0.504 | -0.0181 |
| GCAT C106 (UniProt O75600) | 0.57 | 0.17 | 0.629 | 0.165 |
| GNL3L C490 (UniProt Q9NVN8) | 0.134 | 0.214 | 0.352 | 0.205 |
| GCC2 C416 (UniProt Q8IWJ2) | 0.434 | 0.11 | 0.248 | -0.0132 |
| GLMN C537 (UniProt Q92990) | 0.18 | 0.382 | 0.602 | -0.141 |
| GNE C183 (UniProt Q9Y223) | 0.29 | 0.0828 | -0.0703 | 0.128 |

| Target | log2 mean competition ratio ([1]; 50 µM) | log2 mean competition ratio ([1]; 200 µM) | log2 mean competition ratio ([2]; 50 µM) | log2 mean competition ratio ([2]; 200 µM) |
| --- | --- | --- | --- | --- |
| GCC2 C48 (UniProt Q8IWJ2) | -0.167 | -0.0277 | -0.584 | 0.0977 |
| GNA12 C11 (UniProt Q03113) | -6.53e-05 | 0.195 | -0.148 | -0.101 |
| GLCCI1 C423 (UniProt Q86VQ1) | 0.00478 | 0.0697 | 0.0698 | 0.285 |
| GGPS1 C138 (UniProt O95749) | 0.142 | -0.38 | 0.0632 | -0.367 |
| GRK3 C681 (UniProt P35626) | 0.143 | -0.229 | -0.389 | -0.145 |
| GNAI1 C351 (UniProt P63096) | -0.0806 | -0.348 | 0.651 | 0.0201 |
| GK;GK3P C421;(C415) | 0.107 | -0.122 | -0.309 | -0.159 |
| GEMIN5 C441 (UniProt Q8TEQ6) | 0.0773 | -0.296 | 0.0527 | -0.196 |
| GRIPAP1 C581 (UniProt Q4V328) | -0.0492 | -0.249 | -0.342 | -0.154 |
| GPT2 C477 (UniProt Q8TD30) | -0.201 | 0.0842 | -0.0723 | 0.00135 |
| GPATCH4 C333 (UniProt Q5T3I0) | 0.0397 | 0.106 | 0.15 | 0.155 |
| GRB10 C203 (UniProt Q13322) | 0.534 | 0.261 | -0.204 | -0.0937 |
| GSPT1 C327 (UniProt P15170) | -0.096 | -0.043 | 0.084 | -0.0842 |
| GPX4 C134 (UniProt P36969) | 0.0815 | -0.117 | -0.772 | -0.183 |
| GPATCH11 C95 (UniProt Q8N954) | 0.118 | -0.0212 | 0.342 | 0.0699 |
| GNAI3 C139 (UniProt P08754) | -0.0277 | -0.0405 | 0.0819 | 0.0548 |
| GRK6 C57 (UniProt P43250) | -0.129 | 0.116 | -0.275 | 0.0866 |
| GEN1 C880 (UniProt Q17RS7) | -0.0616 | 0.0152 | 0.695 | -0.0207 |
| GNB1L C206 (UniProt Q9BYB4) | 0.387 | -0.191 | 0.05 | -0.0192 |

Shown tab-delimited: entries from further up.
Target	log2 mean competition ratio ([1]; 50 µM)	log2 mean competition ratio ([1]; 200 µM)	log2 mean competition ratio ([2]; 50 µM)	log2 mean competition ratio ([2]; 200 µM)
GCN1 C2558 (UniProt Q92616)	0.00373	0.02	-0.177	-0.0281
GPATCH1 C534 (UniProt Q9BRR8)	–	-0.489	0.0139	0.3
